# Source: PubChem BioAssay AID504467 (National Center for Advancing Translational Sciences (NCATS), 2011)
# Hit rate of the full screen: of about 330,000 compounds, about 7,700 (2.3%) were called active. Inconclusive means that the source gave no clear call. Such entries were picked first, then a sample of the others. The call rests on the fitted dose curve; in most records, active means well fitted inhibition curve with a large enough effect; inconclusive means small, poorly fitted or top-dose-only effect, or effect the other way; inactive means flat fitted curve, though single readings scatter. Potencies beside an inconclusive call are fits to weak or partial responses and may not hold up.
# Assay: qHTS screen for small molecules that inhibit ELG1-dependent DNA repair in human embryonic kidney (HEK293T) cells expressing luciferase-tagged ELG1; further: nearly all actives have a fitted effect of over 55% in size
# Conditions: HEK293T ELG1-luciferase reporter, luminescence, 16 h, DNA damage induced by 5-fluorouridine; activity change, negative = inhibition: at 46.1 µM (top of the series)
# How it was run: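 DMSO vehicle served as the neutral condition. Each well held 2,000 cells given 5-fluorouridine plus compound; after 16 hr at 37 °C/5% CO2, ONE-Glo was added and luciferase measured 30 min later.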
# On the % scale 0 is the no-effect control and ±100 the full control effect; potency means the concentration at half of the fitted maximal effect.
SMILES,"activity change, negative = inhibition",Potency
CCOc1ccc2oc(=O)cc(CN3CCOCC3)c2c1,inactive: 3.35%,–
Cc1ccc(CNC(=O)CN2CCCC(C)C2)cc1 (stereo not given),–,"inconclusive: 23.1 µM [activator, single point]"
Cc1ccc(S(=O)(=O)N2CCOCC2)cc1NC(=O)CSc1nnc(N)s1,inactive: -8.75%,–
CC(C)CC(/C(O)=C(\C#N)c1nc2ccccc2[nH]1)N1C(=O)c2ccccc2C1=O (stereo not given),–,"inconclusive: 29.1 µM [inhibitor, single point]"
O=C(NCCc1c[nH]c2ccccc12)C(=O)NCC1OCCN1S(=O)(=O)c1ccc(Cl)cc1 (stereo not given),–,active: 13 µM
Cc1nn(-c2ccccc2)c(N2CCCCC2)c1/C=N/NC(=O)c1ccncc1,–,"inconclusive: 29.1 µM [inhibitor, single point]"
Cc1ccc(NC(=S)NCCC2=CCCCC2)cc1,–,"inconclusive: 3.66 µM [activator, partial curve]"
COc1cccc(C2=NOC(C(=O)Nc3cccnc3Cl)C2)c1OC (stereo not given),–,"inconclusive: 20.6 µM [inhibitor, single point]"
C=CCn1c(NCc2ccc3c(c2)OCO3)nc2ccccc21,–,"inconclusive: 14.6 µM [activator, partial curve, poor fit]"
COCCOC(=O)c1[nH]c2c(c1C)C(=O)C(C(=O)OC)C(C)C2 (stereo not given),–,"inconclusive: 16.4 µM [activator, partial curve]"
CC(Sc1nnc(CN2CCCC2)n1Cc1ccccc1)C(=O)Nc1ccccc1 (stereo not given),inactive: -3.57%,–
Cc1nc2ccc(-c3ccccc3)cc2o1,–,"inconclusive: 29.1 µM [activator, single point]"
O=C(NC(=S)Nc1nc2c(ccc3ccccc32)s1)c1cccs1,inactive: 7.45%,–
Cc1cc(Cl)ccc1OCC(=O)NC(=S)Nc1ccc(Cl)cn1,–,"inconclusive: 32.6 µM [activator, partial curve, poor fit]"
Cn1cc([N+](=O)[O-])c(C(=O)Nc2nccs2)n1,–,"inconclusive: 1.46 µM [inhibitor, partial curve, poor fit]"
CCCCCn1c(N)c(C#N)c2nc3ccccc3nc21,inactive: -2.26%,–
CCCNC(=O)OC[C@H]1O[C@H](CCO/N=C(\C)CCN2CCc3nc(-c4ccccc4)c(-c4ccccc4)cc3C2)C=C[C@@H]1Oc1ccc(OC)cc1,–,active: 6.51 µM
COc1ccccc1CNC(=O)C(=O)NCCC1CCCCN1S(=O)(=O)c1ccccc1 (stereo not given),–,"inconclusive: 23.1 µM [inhibitor, single point]"
CCN1CCN(c2ccc(S(=O)(=O)N3CCCCC3)cc2NC(=O)c2ccc(C)o2)CC1,inactive: -1.1%,–
CC(C)(C)c1ccc(C(=O)Nc2ccc([N+](=O)[O-])cn2)cc1,–,"inconclusive: 1.3 µM [activator, full curve]"
Cc1ccc(-n2cccn2)c([C@@H]2C[C@H]3CN(C)C(=O)[C@]34CCCN24)c1,inactive: 9.78%,–
O=C(N/C=C/c1ccco1)Nc1cccc(Cl)c1,inactive: 24.9%,–
CCOC(=O)CNC(=S)N(CCCN1CCCCC1)Cc1cccs1,–,"inconclusive: 29.1 µM [activator, single point]"
Cc1cc(C(=O)N/N=C/c2ccc(N3CCOCC3)cc2)c(C)o1,–,"inconclusive: 29.1 µM [activator, single point]"

# Given as tab-separated lines: part of the list above.
SMILES	activity change, negative = inhibition	Potency
CC(C)(C)c1ccc(C(=O)Nc2ccc([N+](=O)[O-])cn2)cc1	–	inconclusive: 1.3 µM [activator, full curve]
Cc1ccc(-n2cccn2)c([C@@H]2C[C@H]3CN(C)C(=O)[C@]34CCCN24)c1	inactive: 9.78%	–
O=C(N/C=C/c1ccco1)Nc1cccc(Cl)c1	inactive: 24.9%	–
CCOC(=O)CNC(=S)N(CCCN1CCCCC1)Cc1cccs1	–	inconclusive: 29.1 µM [activator, single point]
Cc1cc(C(=O)N/N=C/c2ccc(N3CCOCC3)cc2)c(C)o1	–	inconclusive: 29.1 µM [activator, single point]

# Remaining list, next part

SMILES,"activity change, negative = inhibition",Potency
COc1ccccc1CCNC(=O)C1CCC(=O)N(Cc2ccccc2OC)C1 (stereo not given),inactive: 10.7%,–
N/C(=N\OC(=O)Nc1ccccc1)c1ncc(C(F)(F)F)cc1Cl,–,"inconclusive: 20.6 µM [activator, partial curve]"
COc1ccc(-n2nc(C(=O)NCC(=O)N3CCCCC3)c3ccccc3c2=O)cc1,–,"inconclusive: 20.6 µM [activator, single point]"
O=C1CC(Cc2ccc(Cl)cc2)C(=O)N1c1cc(Cl)ccn1 (stereo not given),–,"inconclusive: 1.83 µM [inhibitor, partial curve, poor fit]"
O=C(NC(=S)Nc1ccc(N2CCCCC2)c(Cl)c1)c1ccc2c(c1)OCCO2,inactive: -12.8%,–
Cc1ccc(-n2nnc(-c3cc4ccccc4n3C)n2)cc1,–,"inconclusive: 2.59 µM [activator, full curve]"
COc1ccc(/C=N\Nc2ncc(F)c(N3CCOCC3)n2)cc1OC,–,active: 18.3 µM
CCNc1ccc(Br)cc(C(=O)/C=C/c2c(Cl)cccc2Cl)c1=O,–,"inconclusive: 23.1 µM [inhibitor, single point]"
Cn1c(=O)c2c(nc(SCc3ccccc3F)n2C)n(C)c1=O,inactive: -16.2%,–
COc1ccc(-c2nc(-c3ccccc3)nc(N3CCN(C)CC3)c2C#N)cc1,–,active: 20.6 µM
NC(=O)[C@H]1CC2(CC(c3cccc(NC(=O)COc4ccc(Cl)cc4)c3)=NO2)CN1C(=O)Cc1ccc([N+](=O)[O-])cc1 (stereo not given in full),–,active: 2.06 µM
Cc1cc(C)c2cc(CN(CCN3CCCC3)C(=O)Nc3ccc(F)cc3)c(=O)[nH]c2c1,–,"inconclusive: 18.4 µM [inhibitor, single point]"
CN1CCN(c2ccccc2NC(=O)c2ccc(-c3ccc(Cl)cc3Cl)o2)CC1,–,active: 20.6 µM
O=C(COC(=O)c1cc(Cl)ccc1O)NC(=O)NCc1ccccc1,–,"inconclusive: 32.6 µM [activator, partial curve, poor fit]"
Cc1c(Br)c([N+](=O)[O-])nn1CC(=O)Nc1ccc(C(C)C)cc1,–,"inconclusive: 20.6 µM [inhibitor, partial curve]"
Cc1cccc(Nc2nc(-c3c(C)nc4ccccn34)cs2)c1,–,"inconclusive: 23.1 µM [inhibitor, single point]"
COc1cc(/C=C/C(=O)NCc2nc3ccccc3[nH]2)cc(OC)c1OC,–,"inconclusive: 20.6 µM [activator, single point]"
Cc1ccc(Nc2ncnc3nc[nH]c23)cc1Cl,–,"inconclusive: 10.3 µM [activator, partial curve]"
O=C(COc1ccc2ccccc2c1)Nc1ccccc1C(=O)O,–,"inconclusive: 29.1 µM [activator, single point]"
COc1nc(C)nc(C)c1Oc1ccc(Cl)cc1Cl,inactive: -3.66%,–
O=C(/C=C/c1ccc(Cl)cc1)N(Cc1cccs1)C1CCS(=O)(=O)C1 (stereo not given),–,"inconclusive: 4.61 µM [inhibitor, single point]"
COc1ccc(CC(=O)Nc2cc(NC(=O)Cc3ccc(OC)c(OC)c3)cc(C(=O)O)c2)cc1OC,–,"inconclusive: 18.3 µM [inhibitor, single point]"
CCn1c(O)c(C=NC2CCCC2)sc1=S,–,"inconclusive: 18.4 µM [activator, partial curve]"
COc1ccc(OCC(=O)N/N=C/c2ccc(OC)c(OC)c2C(=O)O)cc1,inactive: 5.51%,–

SMILES,"activity change, negative = inhibition",Potency
CCC(C)c1ccc(OCC(=O)Nc2ccc(Cl)cn2)cc1 (stereo not given),–,"inconclusive: 13 µM [activator, partial curve]"
CCO[C@@H]1OC(C(=O)NCc2nc3ccccc3[nH]2)=C[C@H](C2CCCCC2)[C@H]1CCCO,–,"inconclusive: 11.6 µM [inhibitor, partial curve]"
On1c(-c2ccccc2)nc2ccc(Cl)cc21,–,"inconclusive: 9.2 µM [activator, partial curve]"
CCOc1ccc(-c2csc(/C(C#N)=C\c3ccc(O)c([N+](=O)[O-])c3)n2)cc1,–,active: 13 µM
COc1ccc(S(=O)(=O)NC2CC(=O)N(c3ccccc3)C2)cc1C (stereo not given),inactive: -6.4%,–
COc1ccc(NC(=S)NC(NC(=O)c2cccc3ccccc23)C(Cl)(Cl)Cl)c([N+](=O)[O-])c1 (stereo not given),–,"inconclusive: 25.9 µM [inhibitor, single point]"
COc1ccc(C(=S)N2CCN(c3cccc(Cl)c3)CC2)c(OC)c1,–,"inconclusive: 14.6 µM [inhibitor, partial curve]"
CC(=O)c1cccc(NC(=O)CN2CCc3cc4c(cc3C2)OCCCO4)c1,–,"inconclusive: 5.8 µM [inhibitor, single point]"
Cc1cc(S(=O)(=O)Nc2ccccc2C(=O)O)ccc1Cl,–,"inconclusive: 29.1 µM [activator, single point]"
O=C(CN1C(=O)NC2(CCCC2)C1=O)N1CCCSC1=Nc1ccccc1,inactive: 11.5%,–
COc1ccc(-n2nc(C(=O)NCC(=O)N3CCN(c4ccccn4)CC3)c3ccccc3c2=O)cc1,–,"inconclusive: 18.4 µM [inhibitor, single point]"
CCC(C)c1ccccc1NC(=O)C(C)N(C)Cc1cccc(OC)c1 (stereo not given),–,"inconclusive: 18.3 µM [inhibitor, single point]"
Cc1ccc(-c2noc(CCC(=O)NCc3ccccc3CN3CCOCC3)n2)cc1,–,"inconclusive: 18.3 µM [inhibitor, single point]"
CCOc1ccc(NC(=O)CSc2nc3ccccc3nc2N2CC(C)OC(C)C2)cc1 (stereo not given),inactive: -22.5%,–
COc1ccc(OC)c(CNn2c(-c3cccc(C)c3)nc3ccccc3c2=O)c1,–,active: 18.4 µM
COc1ccc(CNC(=O)COC(=O)c2cccn2C)cc1,–,"inconclusive: 16.4 µM [activator, single point]"
C#CCOc1ccccc1CNC1CCN(Cc2ccccc2)CC1,inactive: -12.2%,–
C[C@@H](N)C(=O)NC[C@H]1O[C@@H](n2cnc3c(N)ncnc32)[C@H](O)[C@@H]1O,inactive: 9.28%,–
CCC1(O)c2ccccc2-c2ncccc21 (stereo not given),–,"inconclusive: 1.16 µM [inhibitor, single point]"
CCn1c2ccccc2c2cc(NC(=O)CNCc3ccccc3OC)ccc21,–,"inconclusive: 16.4 µM [inhibitor, single point]"
CC(C)Cn1c(CN(Cc2ccccc2)Cc2ccccc2)nc2c1c(=O)n(C)c(=O)n2C,–,"inconclusive: 16.4 µM [inhibitor, single point]"
Cc1ccccc1NC1=C/C(=N\S(=O)(=O)c2cccs2)c2ccccc2C1=O,–,active: 3.66 µM
